Results from paper PMC10731644, “Toward ^68Ga and ^64Cu Positron Emission Tomography Probes: Is H2dedpa-N,N′-pram the Missing Link for dedpa Conjugation?” (Inorganic Chemistry, 2023).

What was measured:
[1] = cited from earlier work
[2] = 68Ga radiolabeling (radio-TLC); conditions: 2 M NaOAc buffer, RT, n = 1
[3] = 64Cu radiolabeling (radio-TLC); conditions: 0.5 M NaOAc buffer, RT, n = 1

For `NCCCc1cc(CNCCNCc2cc(CCCN)cc(C(=O)O)n2)nc(C(=O)O)c1` [H2dedpa-propylpyr-NH2], the “reaction concentration up to which labeled by [^67/68Ga]Ga^3+” value [1] is listed as 10^–5 M.

In the case of `O=C(O)c1cccc(CN(CCN(Cc2ccc([N+](=O)[O-])cc2)Cc2cccc(C(=O)O)n2)Cc2ccc([N+](=O)[O-])cc2)n1` [H2dp-N-NO2], the “reaction concentration up to which [^68Ga]Ga^3+ is quantitatively incorporated” value [1] is given as 10^–6 M.

In the case of “N,N′-Bis(3-aminopropyl)-N,N′-bis(6-carboxypyridin-2-yl)-1,2-diaminoethane [H2L^1]”, the “RCC (%), [68Ga]GaCl3” value ([2]; pH 4, 1 × 10^-4 M ligand) is reported as 100%, the “RCC (%), [68Ga]GaCl3” value ([2]; pH 6, 1 × 10^-4 M ligand) is reported as 100% and the “RCC (%), [68Ga]GaCl3” value ([2]; pH 7.4, 1 × 10^-4 M ligand) is reported as 100%. For the same molecule, the “RCC (%), [64Cu]CuCl2” value ([3]; pH 4, 1 × 10^-4 M ligand) was 100%, the “RCC (%), [64Cu]CuCl2” value ([3]; pH 5, 1 × 10^-4 M ligand) was 100% and the “RCC (%), [64Cu]CuCl2” value ([3]; pH 7, 1 × 10^-4 M ligand) was 100%.

For `O=C(O)c1cccc(CNC[C@H](Cc2ccc([N+](=O)[O-])cc2)NCc2cccc(C(=O)O)n2)n1` [H2dp-bb-NO2], the “reaction concentration up to which [^68Ga]Ga^3+ is quantitatively incorporated” value [1] is given as 10^–6 M.
